Test results taken from PubChem BioAssay AID504467 (National Center for Advancing Translational Sciences (NCATS), 2011).
Hit rate of the full screen: of about 330,000 compounds, about 7,700 (2.3%) were called active. This list was built around the results that the source calls inconclusive (neither active nor inactive); the mix of calls is not that of the screen. Calls follow the shape of the dose curve; as a rule, active = well fitted inhibition curve with a large enough effect; inconclusive = small, poorly fitted or top-dose-only effect, or effect the other way; inactive = flat fitted curve, though single readings scatter. Where the call is inconclusive, the potency comes from a doubtful curve fit.
Potency is read from the fitted curve at half-maximal effect.

Assay: qHTS screen for small molecules that inhibit ELG1-dependent DNA repair in human embryonic kidney (HEK293T) cells expressing luciferase-tagged ELG1; also: nearly all actives have a fitted effect of over 55% in size
Settings: HEK293T ELG1-luciferase reporter, luminescence, 16 h, DNA damage induced by 5-fluorouridine; series mostly up to 46.1 µM
Method in brief: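 Quantitative HTS, concentration-response format. 2,000 cells/well co-treated with 5-fluorouridine and compound, 16 hr in 5% CO2 at 37 °C; ONE-Glo luminescence read after 30 min.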
In the case of `Cc1ccc(-n2nnnc2Sc2nc([N+](=O)[O-])nn2C)cc1`, the Potency is reported as inconclusive: 25.9 µM [activator, single point]. In the case of `Cc1ccc2c(c1)N(C)/C(=C/c1cccc[n+]1CCO)S2`, the Potency is reported as inconclusive: 2.59 µM [inhibitor, full curve]. For `Cc1ccc(-c2csc3ncnc(NCCN4CCOCC4)c23)cc1`, the Potency was inconclusive: 16.4 µM [inhibitor, single point]. In the case of `CC1=C(C)C(=O)C(N2CCOCC2)=CC1=O`, the Potency is reported as inconclusive: 10.3 µM [inhibitor, partial curve, poor fit]. With `CCCCCC(O)CCc1n[nH]c(=S)n1-c1ccccc1` (centres undefined) the Potency was “inactive”. With `COc1ccc2c(c1OC)C(=O)N(c1ccc(C)cc1)C2` the Potency was inconclusive: 3.66 µM [activator, partial curve]. In the case of `O=C(NCCC(=O)N1CCCCC1)c1ccc(Br)cc1`, the Potency is reported as inconclusive: 20.6 µM [activator, partial curve]. In the case of `Cc1nc(-c2cccc(NC(=O)c3ccco3)c2)cs1`, the Potency is reported as “inactive”. In the case of `COc1cccc(C(=O)Nc2cccc(C(=O)N3CCOCC3)c2)c1`, the Potency is reported as “inactive”. With `O=C(Nc1cnn(Cc2c(Cl)cccc2Cl)c1)c1ccc([N+](=O)[O-])cc1` the Potency was inconclusive: 4.11 µM [inhibitor, single point]. For `Cc1csc(SCc2nnc(-c3ccc(Cl)cc3)o2)n1`, the Potency was inconclusive: 3.26 µM [activator, partial curve]. For `Nc1cc(S(=O)(=O)N2CCOCC2)ccc1Oc1cccc(Br)c1`, the Potency was “inactive”. With `Cc1cc(C)c(C(CC(=O)c2cccs2)C(C#N)C#N)c(C)c1` (centres undefined) the Potency was inconclusive: 8.2 µM [activator, partial curve]. For `N#CCSc1ncnc2c1cnn2CCO`, the Potency was “inactive”. With `Clc1ncccc1-c1nnn(-c2ccccc2Br)n1` the Potency was inconclusive: 13 µM [activator, partial curve, poor fit]. In the case of `CCC(C)c1ccc(NC(=O)C/C(C)=N/NC(=O)c2cnccn2)cc1` (centres undefined), the Potency is reported as inconclusive: 16.4 µM [activator, single point]. With `O=C(NCc1ccc(Cl)cc1)c1ccc2ccccc2n1` the Potency was inconclusive: 23.1 µM [activator, single point]. In the case of `O=C(CC1SC(=Nc2ccccc2)N(CCCO)C1=O)Nc1ccc(Cl)cc1` (centres undefined), the Potency is reported as inconclusive: 29.1 µM [inhibitor, single point]. In the case of `CC1CN(S(=O)(=O)c2cccc(C(=O)N(CCc3ccccc3)Cc3ccccc3)c2)CC(C)O1` (centres undefined), the Potency is reported as inconclusive: 4.11 µM [inhibitor, full curve, poor fit]. With `CC(=O)Nc1ccc(C2Nc3cc(C)c(C)cc3NC3=C2C(=O)CC(C)(C)C3)cc1` (centres undefined) the Potency was inconclusive: 20.6 µM [activator, partial curve, poor fit]. In the case of `COc1ccc(CCN2C(=O)C(Oc3ccccc3C)C2c2ccc3c(c2)OCO3)cc1` (centres undefined), the Potency is reported as active: 16.4 µM. With `CCc1cc2c(=O)c(-c3nc4ccccc4n3C)c(C)oc2c(CN2CCN(CCO)CC2)c1O` the Potency was “inactive”. For `C=CCn1c(=S)[nH]c2cc(-c3ccccc3)sc2c1=O`, the Potency was inconclusive: 7.3 µM [activator, partial curve]. For `CCOC(=O)C1CCN(C(=O)CCCn2c(=O)c3cccn3c3cccnc32)CC1`, the Potency was “inactive”. For `O=c1[nH]c2ccccc2nc1-c1c[nH]c2ccccc12`, the Potency was inconclusive: 25.9 µM [activator, single point]. In the case of `CC1=C(C(=O)Nc2ccccn2)C(c2ccccc2Cl)NC(=S)N1` (centres undefined), the Potency is reported as inconclusive: 29.1 µM [activator, single point]. In the case of `CN(C)S(=O)(=O)c1cccc(NC(=O)c2cccc(S(=O)(=O)N3CCCCC3)c2)c1`, the Potency is reported as inconclusive: 18.3 µM [inhibitor, single point]. With `O=C(Cc1cccs1)NCc1cc(Cl)cc(Cl)c1` the Potency was inconclusive: 20.6 µM [activator, single point]. In the case of `Cc1cc(C(=O)OCC(=O)Nc2cc(S(=O)(=O)N3CCOCC3)ccc2Cl)c(C)o1`, the Potency is reported as inconclusive: 29.1 µM [inhibitor, partial curve, poor fit]. In the case of `O=C(NCc1nc2ccccc2[nH]1)c1c(F)c(F)c(F)c(F)c1F`, the Potency is reported as “inactive”. With `COc1ccc(-c2cc(C(=O)O)c(C)o2)cc1OC` the Potency was inconclusive: 0.461 µM [activator, partial curve]. For `CC(=O)Nc1ccc(-c2nnc(SCc3c(C)cc(C)cc3C)n2C)cc1`, the Potency was inconclusive: 10.3 µM [inhibitor, partial curve]. For `CC(=O)Nc1ccc(NC(=O)COC(=O)/C(=C/c2ccccc2)n2nnnc2C)cc1`, the Potency was inconclusive: 29.1 µM [inhibitor, single point]. In the case of `COc1ccc(C(=O)Nc2cc(C)on2)cc1[N+](=O)[O-]`, the Potency is reported as “inactive”. For `CC(=O)Oc1cc2c(cc1Cl)C1(CC(c3ccccc3Cl)O2)CC(C)(C)NC(=S)N1` (centres undefined), the Potency was inconclusive: 18.4 µM [inhibitor, single point]. In the case of `CCOc1ccc(NS(=O)(=O)c2ccc(-c3cnc(C4CC4)o3)cc2)cc1`, the Potency is reported as inconclusive: 20.6 µM [inhibitor, partial curve, poor fit]. For `COc1cccc(-c2nnc(Nc3nc4c(F)cccc4s3)o2)c1`, the Potency was inconclusive: 2.91 µM [activator, full curve]. For `CCC(Oc1ccccc1)C(=O)Nc1ccc(S(=O)(=O)NCC2CCCO2)cc1` (centres undefined), the Potency was inconclusive: 16.4 µM [inhibitor, partial curve]. In the case of `OC(COC(c1ccc(Cl)cc1)c1ccc(Cl)cc1)CN1CCN(c2ccccn2)CC1` (centres undefined), the Potency is reported as inconclusive: 20.6 µM [inhibitor, partial curve]. In the case of `CC12CCC(=O)C=C1CCC1C2CCC2(C)C1CC[C@]2(O)C(=O)CO` (some centres undefined), the Potency is reported as “inactive”. For `Cc1ccc(NC(=S)Nc2cccc3ccccc23)cc1`, the Potency was inconclusive: 23.1 µM [activator, partial curve]. With `NC(=O)C1CCN(c2nc(-c3ccccc3Br)cs2)CC1` the Potency was inconclusive: 18.3 µM [activator, partial curve]. In the case of `N#CCc1c(C#N)c(N)nc(N2CCN(S(=O)(=O)c3ccccc3)CC2)c1C#N`, the Potency is reported as active: 9.2 µM. With `Cc1cccc(NC(=O)CCC(=O)OCC(=O)c2ccc(Oc3ccc([N+](=O)[O-])cc3)cc2)c1` the Potency was inconclusive: 29.1 µM [activator, partial curve, poor fit].
